This is an account of results in publication PMC2669294, “The Spliceosomal Phosphopeptide P140 Controls the Lupus Disease by Interacting with the HSC70 Protein and via a Mechanism Mediated by γδ T Cells” (PLoS ONE, 2009).

Chains of the proteins cited; added tags and fusions are not shown.
UniProt P63017: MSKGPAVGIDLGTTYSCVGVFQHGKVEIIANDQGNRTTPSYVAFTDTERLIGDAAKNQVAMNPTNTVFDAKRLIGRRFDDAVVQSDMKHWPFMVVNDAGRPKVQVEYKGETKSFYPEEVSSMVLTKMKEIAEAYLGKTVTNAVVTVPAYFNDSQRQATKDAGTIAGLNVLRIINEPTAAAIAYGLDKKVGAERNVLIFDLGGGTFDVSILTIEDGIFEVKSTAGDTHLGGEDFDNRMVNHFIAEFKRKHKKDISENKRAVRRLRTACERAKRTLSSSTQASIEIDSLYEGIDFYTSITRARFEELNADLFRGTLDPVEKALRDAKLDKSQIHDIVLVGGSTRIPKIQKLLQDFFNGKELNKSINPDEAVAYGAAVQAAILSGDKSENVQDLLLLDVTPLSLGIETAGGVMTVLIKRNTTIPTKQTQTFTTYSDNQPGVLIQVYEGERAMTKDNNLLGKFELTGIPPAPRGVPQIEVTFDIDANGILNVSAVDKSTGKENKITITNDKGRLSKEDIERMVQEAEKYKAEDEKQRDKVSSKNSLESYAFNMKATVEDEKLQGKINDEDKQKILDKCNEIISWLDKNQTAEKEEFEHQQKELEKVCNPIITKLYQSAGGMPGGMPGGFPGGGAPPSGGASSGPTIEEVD

These are yes or no findings as the source states them, for the method shown. In cells and extracts the contact can be indirect. Here binding means that the protein was enriched with, or labelled near, the bait; the list need not be complete.

The target in the assay is heat-shock cognate 71-kDa protein (HSC70) expressed on the surface of mouse splenocytes and lymph node cells (mouse (endogenous in MRL/lpr and CBA/J splenocytes and LNCs)) (UniProt P63017). Description: affinity purification with mass spectrometry; same procedure as a1 with unlabeled P140 peptide added as a competitor; band quantified by densitometry; only the binder purified.

B1: P140 peptide (U1-70K snRNP protein residues 131-151, phosphorylated on Ser140) (peptide)
peptide: RIHMVYSKRSGKPRGYAFIEY
modifications: phosphoserine at Ser140 (position 10 of the peptide)
As to B1, the binding entry is “binds”.
